No constants are given. Whether binding was seen depends on the method and setting. Binding seen in cells or lysates may run through a third protein. These calls come from enrichment with a bait or labelling near it, and not all partners need be listed.
Columns and labels:
[1] = biological target: embryonic ectoderm development (EED) GFP-fusion protein (UniProt O75530); experiment: affinity purification with mass spectrometry; GFP enrichment with Chromotek GFP-Trap magnetic beads (~93 million beads, 50 μL slurry) from 1 mg nuclear extract of EED-GFP HeLa cells, WT HeLa nuclear extract as control; 90 min at 4 °C in nuclei lysis buffer (420 mM NaCl, 20 mM HEPES/KOH pH 7.9, 0.1% NP40); on-bead trypsin digestion, label-free nanoLC-MS/MS, triplicates
[2] = biological target: embryonic ectoderm development (EED) GFP-fusion protein (UniProt O75530); experiment: affinity purification with mass spectrometry; GFP enrichment with antifouling pSB-co-(aGFP)8% beads (~93 million beads) from 1 mg nuclear extract of EED-GFP HeLa cells, WT HeLa nuclear extract as control; 90 min at 4 °C in nuclei lysis buffer (420 mM NaCl, 20 mM HEPES/KOH pH 7.9, 0.1% NP40); on-bead trypsin digestion, label-free nanoLC-MS/MS, triplicates

Sequences of proteins named here, by UniProt entry; tags and fusion partners are left off.
UniProt A6NHQ4: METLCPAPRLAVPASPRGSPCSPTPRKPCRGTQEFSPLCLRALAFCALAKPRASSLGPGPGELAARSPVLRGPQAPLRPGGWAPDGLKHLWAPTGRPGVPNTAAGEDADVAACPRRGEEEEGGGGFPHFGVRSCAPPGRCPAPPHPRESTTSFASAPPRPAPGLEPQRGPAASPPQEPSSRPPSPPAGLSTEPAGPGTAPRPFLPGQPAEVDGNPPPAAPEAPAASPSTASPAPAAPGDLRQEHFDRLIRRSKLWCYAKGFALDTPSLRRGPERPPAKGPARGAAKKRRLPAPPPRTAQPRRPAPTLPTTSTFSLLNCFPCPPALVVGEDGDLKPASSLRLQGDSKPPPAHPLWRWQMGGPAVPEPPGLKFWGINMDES
UniProt Q9Y483: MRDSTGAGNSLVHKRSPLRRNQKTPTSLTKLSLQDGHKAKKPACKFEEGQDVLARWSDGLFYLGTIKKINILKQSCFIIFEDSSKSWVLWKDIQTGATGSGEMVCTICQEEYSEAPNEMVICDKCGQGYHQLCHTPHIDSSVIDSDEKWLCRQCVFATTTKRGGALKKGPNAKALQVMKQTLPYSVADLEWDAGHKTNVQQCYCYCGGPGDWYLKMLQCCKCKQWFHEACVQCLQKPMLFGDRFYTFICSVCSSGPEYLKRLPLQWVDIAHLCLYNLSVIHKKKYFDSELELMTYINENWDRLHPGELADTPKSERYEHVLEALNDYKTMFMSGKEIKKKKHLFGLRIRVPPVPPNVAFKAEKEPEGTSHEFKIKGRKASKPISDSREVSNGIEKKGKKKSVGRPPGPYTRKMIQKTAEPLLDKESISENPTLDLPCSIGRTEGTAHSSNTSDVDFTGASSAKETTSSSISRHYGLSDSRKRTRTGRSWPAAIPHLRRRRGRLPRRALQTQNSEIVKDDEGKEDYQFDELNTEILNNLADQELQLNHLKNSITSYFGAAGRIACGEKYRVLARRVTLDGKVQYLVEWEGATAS

| Substance | binding [1] | binding [2] |
| --- | --- | --- |
| C17orf96 (from UniProt A6NHQ4 1-379) | binds | binds |
| PCL2 (from UniProt Q9Y483 1-593) | binds | binds |
| PCL3 (from UniProt Q5T6S3 1-580) | binds | binds |
